# In patent US11390644B2, “Raman tag” (Purdue Research Foundation, priority 2014, dated 2022):
# Experiments:
# CHO cells = assay: SRS imaging of probe incorporation and storage in live cells; type: cell-based, Chinese hamster; details: 50 μM, 16 h
# M12 cells = assay: SRS/TPEF imaging of probe in NP-C disease cell model; type: cell-based, Chinese hamster; details: M12 cells (NPC1 deleted), filipin / LysoTracker staining
# C. elegans = assay: PhDY-Chol uptake and storage in live C. elegans by SRS imaging; type: in vivo; details: fed 500 μM, 3 days
compound,measurement,setting,value
"C[C@H](CCC#CC#Cc1ccccc1)[C@H]1CC[C@H]2[C@@H]3CC=C4C[C@@H](O)CC[C@]4(C)[C@H]3CC[C@]12C [PhDY-Chol, phenyl-diyne cholesterol]",intracellular localization,CHO cells; live CHO cells,colocalized with LDs
same,incorporation into the plasma membrane,"CHO cells; trypsinized live CHO cells, on-resonance SRS image",detected in the on-resonance image
same,intracellular localization in NP-C model cells,M12 cells,located in lysosomes
same,intracellular localization in NP-C model cells,M12 cells; listed as PhDY-CHOL,found inside lysosomes
same,storage site in worms,C. elegans; N2 wildtype,stored in the intestinal cells
same,storage compartment in intestinal cells,C. elegans; hjIs9 worms with GFP targeted to LROs,stored in the LROs
same,uptake in ChUP-1 deleted worms,C. elegans; mutant C. elegans with ChUP-1 deletion,did not observe PhDY-Chol inside this strain
